# The supplement of paper PMC5949888
# Most values lie at the floor of the assay. Slopes are relative: functional sequences can read slightly below zero.
# Tested on: Saccharomyces cerevisiae PS128 hsf1 delta, HSF1(1-493) fusion
# Test: growth estimate (transactivation domain function in HSF1 fusion, heat-shock survival) (a.u. (slope of normalised read count over time)); higher = stronger growth at 37°C, i.e. more transactivation activity
# Details: library: random library
# Method: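 Random 60-nt DNA library encoding peptides of up to 20 aa, fused to the C-terminus of yeast HSF1 residues 1-493 (C-terminal TAD deleted) and expressed from the native HSF1 promoter on a CEN plasmid in hsf1-deleted S. cerevisiae PS128. Cells were selected at 37°C on -trp 5-FOA plates for 0, 2, 4, 6 and 8 days and amplicons were sequenced. Growth estimate is the slope of a robust linear fit of total-sum-normalised read counts (normalised to the first time point) over time, using at least 2 replicates. Sequences are classed functional (TAD activity) above a threshold of -0.13, set from stop-codon control sequences.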
row,Substance,growth estimate
1,KSSL,< -0.25
2,KIVERLTMIQEWKLSSRPTS,< -0.25
3,STSVEVRPDRSAQALIG,< -0.25
4,IDYFLTLGSSSLTSW,< -0.25
5,GPKGGPAENCSSDCWTTRIY,< -0.25
6,HGGDNSSRRKNQRPAPLGHY,< -0.25
7,LTRFNRGSASLHSRLTSSDP,-0.183
8,AKAGQICFLV,< -0.25
9,GQYFFLGGMNP,-0.219
10,GSYVKKS,< -0.25
11,AICSHLWEQLTKPRVSGEPP,< -0.25
12,YGVLSKWARNLVVELGTLLR,< -0.25
13,SLVNRLTVFNFC,< -0.25
14,PIDSDS,< -0.25
15,SSIYVRSQILGTGMKNGEHS,< -0.25
16,KQT,< -0.25
17,WDP,< -0.25
18,RNRGSIYALLGGFPLDVVTT,< -0.25
19,ACRYSFSGGERVTTRTGPGI,< -0.25
20,GVHSLPP,< -0.25
21,LTDLGPSKQEYNRIHGRPVN,< -0.25
22,DHFTCTALDCRA,< -0.25
23,CRGLRLNV,< -0.25
24,ESLSRSH,< -0.25
25,TRTKLADTLPSARVSRHGDH,< -0.25

row,Substance,growth estimate
1,RDWLDA,< -0.25
2,IIATSGTSGYDRRVIGGRSG,< -0.25
3,GLTVLGRLTQTSSESLKRNT,< -0.25
4,VIDVVT,< -0.25
5,LNGYVQLRWVRGLGPNPWML,-0.245
6,WSTRGVAGPPRGNRMCSSGA,< -0.25
7,NNVLPAVRFPNNFVTSKKAA,< -0.25
8,RLGTGHPPRRIEIWTSSMAP,< -0.25
9,HYCKRLMVCYGCAKSRIVSG,< -0.25
10,EFVEKYAGTRC,< -0.25
11,ITVHRSTGNG,< -0.25
12,IGTMLSSSLQNTS,< -0.25
13,QPIPGSKQADRHVNRHKS,< -0.25
14,TSEPLLEAAESGDKVSWCGP,< -0.25
15,NRRRFLCRFPRWKPWTVKSA,< -0.25
16,AMSEAA,< -0.25
17,SHDSVFASFCQGQIRCSPTG,< -0.25
18,SCGFSVVRRLRVGTNRCP,< -0.25
19,QGRAPCAIFLDSN,-0.111
20,LSHNSREAHL,< -0.25
21,KSEGGDRAYHIARKELA,< -0.25
22,CNNAMYF,< -0.25
23,CNAAVPKRRKRL,< -0.25
24,KRWRR,< -0.25
25,KNPQLLRCQN,< -0.25

row,Substance,growth estimate
1,RDNPYRPRDARVAKNCQEE,< -0.25
2,CPPGEQVDLCLVMRFSKERR,< -0.25
3,SGGYKTKVPGRNTYALRGRH,< -0.25
4,GSGSTA,< -0.25
5,GRVLGMSSPTEAWTILEVKT,< -0.25
6,RFCA,< -0.25
7,TIRVRLRDISSLRAGGDIYG,< -0.25
8,VIYMH,< -0.25
9,YLASEDPTSMIISPFYVSVR,< -0.25
10,GHLGCSLGRVRHNVNGGEDP,< -0.25
11,HGTRKYSALRTCKEEGRAPS,< -0.25
12,DTAGV,< -0.25
13,MGLC,< -0.25
14,CAC,< -0.25
15,WRAKTPLRGARGLAETEPWL,< -0.25
16,IYRR,< -0.25
17,MCGECT,< -0.25
18,YAANSRPDVYT,< -0.25
19,REVFTTEENSWMDSGVRRDA,< -0.25
20,WKKVLKAIC,< -0.25
21,ETSKAQSTKGAAALTVNCMD,< -0.25
22,GKPTSDISLDRGQVKPAART,< -0.25
23,YAGAKL,< -0.25
24,NSRLQAFCRLYMTTTLLPPD,< -0.25
25,NVTSKVVSFRTVIKFSRSVT,< -0.25

# Fetched one by one from above:
row,Substance,growth estimate
19,REVFTTEENSWMDSGVRRDA,< -0.25
6,RFCA,< -0.25
24,NSRLQAFCRLYMTTTLLPPD,< -0.25
11,HGTRKYSALRTCKEEGRAPS,< -0.25
15,WRAKTPLRGARGLAETEPWL,< -0.25

# Going on with the list.

row,Substance,growth estimate
1,HGQASLEPTRVCVRPCVMGA,< -0.25
2,LAIFWVMSQSPE,< -0.25
3,VRGRVG,< -0.25
4,LSRVKVVSSVPGGSGENTAM,< -0.25
5,SYIEIRVPNVKY,< -0.25
6,ISGLQNLVKSHQSTGAVIEP,< -0.25
7,RQLIS,< -0.25
8,QALSAIPSSPHGDLWCTASS,< -0.25
9,VGI,< -0.25
10,SIVSKGAWSVMS,< -0.25
11,EGTRGVRSV,< -0.25
12,QEALEPLQSTPDHWRKFKKL,< -0.25
13,VRNGSAGELVYISFRMALVT,< -0.25
14,RVVNPPLSLPAGRRGLKPRI,< -0.25
15,SLSLQIEGNPGKRTRTPGRC,< -0.25
16,GKGSSIEKR,< -0.25
17,HCLSVD,< -0.25
18,RNQREVDGHDK,< -0.25
19,AGTKIEHVVSGPLDLSRFKT,< -0.25
20,WNQEAFRGE,0.777
21,AVAAVV,< -0.25
22,LAWGSTTP,< -0.25
23,SIGGSMNPSVRRTKT,< -0.25
24,RALS,< -0.25
